Results from paper PMC6070541.
No constants are given. Whether binding was seen depends on the method and setting. Binding seen in cells or lysates may run through a third protein. Some results given as binding are weak or reduced against the parent protein; the word gives no strength.

Protein sequences, listed by entry. Tags and fused reporters are not part of them. Residues count along the entry.
UniProt P50284, residues 31-415: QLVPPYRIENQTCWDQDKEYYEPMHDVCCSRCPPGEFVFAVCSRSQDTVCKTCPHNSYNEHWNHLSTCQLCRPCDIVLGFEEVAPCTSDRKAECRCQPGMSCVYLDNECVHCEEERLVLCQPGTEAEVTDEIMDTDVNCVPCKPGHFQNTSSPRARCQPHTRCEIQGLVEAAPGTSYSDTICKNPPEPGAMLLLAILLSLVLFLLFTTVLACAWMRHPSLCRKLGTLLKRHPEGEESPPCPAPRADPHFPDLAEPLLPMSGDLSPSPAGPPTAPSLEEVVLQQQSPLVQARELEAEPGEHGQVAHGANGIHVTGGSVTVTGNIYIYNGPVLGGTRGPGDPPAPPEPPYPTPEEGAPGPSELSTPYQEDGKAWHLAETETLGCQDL

T1: TNFR-associated factor 3 (TRAF3) (mouse (endogenous in primary LEC)) (UniProt Q60803)
T1 sequence: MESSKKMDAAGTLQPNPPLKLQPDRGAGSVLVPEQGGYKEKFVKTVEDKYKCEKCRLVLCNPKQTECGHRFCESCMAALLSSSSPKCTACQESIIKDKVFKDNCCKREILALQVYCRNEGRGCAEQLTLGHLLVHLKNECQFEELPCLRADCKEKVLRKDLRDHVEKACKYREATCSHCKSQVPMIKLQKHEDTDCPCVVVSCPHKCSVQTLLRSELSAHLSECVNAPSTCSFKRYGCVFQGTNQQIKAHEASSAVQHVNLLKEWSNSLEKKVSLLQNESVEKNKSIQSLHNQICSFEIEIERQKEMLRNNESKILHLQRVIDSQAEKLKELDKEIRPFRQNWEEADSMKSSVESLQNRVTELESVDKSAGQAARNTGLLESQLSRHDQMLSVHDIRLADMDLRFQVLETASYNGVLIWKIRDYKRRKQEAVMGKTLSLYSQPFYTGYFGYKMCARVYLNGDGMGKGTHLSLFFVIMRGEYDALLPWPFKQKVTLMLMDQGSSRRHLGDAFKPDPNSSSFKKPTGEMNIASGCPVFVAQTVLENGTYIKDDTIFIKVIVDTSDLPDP

T2: TNFR-associated factor 2 (TRAF2) (mouse (endogenous in primary LEC)) (UniProt P39429)
T2 sequence: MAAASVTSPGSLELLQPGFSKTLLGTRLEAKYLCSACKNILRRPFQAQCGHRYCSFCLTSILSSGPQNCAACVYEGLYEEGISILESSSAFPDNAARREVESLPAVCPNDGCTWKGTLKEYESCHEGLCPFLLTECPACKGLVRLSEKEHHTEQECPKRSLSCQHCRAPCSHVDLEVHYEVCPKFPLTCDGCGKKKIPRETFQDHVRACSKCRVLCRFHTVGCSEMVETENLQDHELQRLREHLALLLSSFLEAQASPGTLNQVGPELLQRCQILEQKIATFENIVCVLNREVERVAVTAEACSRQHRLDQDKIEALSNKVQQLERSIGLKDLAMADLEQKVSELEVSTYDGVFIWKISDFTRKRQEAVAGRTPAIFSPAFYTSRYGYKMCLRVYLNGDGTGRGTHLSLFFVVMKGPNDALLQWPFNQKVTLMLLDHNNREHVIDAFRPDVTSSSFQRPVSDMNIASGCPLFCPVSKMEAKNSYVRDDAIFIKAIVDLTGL

B1: TNFR-associated factor 3 (TRAF3) (protein, UniProt Q60803 1-567)
chain: MESSKKMDAAGTLQPNPPLKLQPDRGAGSVLVPEQGGYKEKFVKTVEDKYKCEKCRLVLCNPKQTECGHRFCESCMAALLSSSSPKCTACQESIIKDKVFKDNCCKREILALQVYCRNEGRGCAEQLTLGHLLVHLKNECQFEELPCLRADCKEKVLRKDLRDHVEKACKYREATCSHCKSQVPMIKLQKHEDTDCPCVVVSCPHKCSVQTLLRSELSAHLSECVNAPSTCSFKRYGCVFQGTNQQIKAHEASSAVQHVNLLKEWSNSLEKKVSLLQNESVEKNKSIQSLHNQICSFEIEIERQKEMLRNNESKILHLQRVIDSQAEKLKELDKEIRPFRQNWEEADSMKSSVESLQNRVTELESVDKSAGQAARNTGLLESQLSRHDQMLSVHDIRLADMDLRFQVLETASYNGVLIWKIRDYKRRKQEAVMGKTLSLYSQPFYTGYFGYKMCARVYLNGDGMGKGTHLSLFFVIMRGEYDALLPWPFKQKVTLMLMDQGSSRRHLGDAFKPDPNSSSFKKPTGEMNIASGCPVFVAQTVLENGTYIKDDTIFIKVIVDTSDLPDP
B2: TNFR-associated factor 2 (TRAF2) (protein, UniProt P39429 1-501)
chain: MAAASVTSPGSLELLQPGFSKTLLGTRLEAKYLCSACKNILRRPFQAQCGHRYCSFCLTSILSSGPQNCAACVYEGLYEEGISILESSSAFPDNAARREVESLPAVCPNDGCTWKGTLKEYESCHEGLCPFLLTECPACKGLVRLSEKEHHTEQECPKRSLSCQHCRAPCSHVDLEVHYEVCPKFPLTCDGCGKKKIPRETFQDHVRACSKCRVLCRFHTVGCSEMVETENLQDHELQRLREHLALLLSSFLEAQASPGTLNQVGPELLQRCQILEQKIATFENIVCVLNREVERVAVTAEACSRQHRLDQDKIEALSNKVQQLERSIGLKDLAMADLEQKVSELEVSTYDGVFIWKISDFTRKRQEAVAGRTPAIFSPAFYTSRYGYKMCLRVYLNGDGTGRGTHLSLFFVVMKGPNDALLQWPFNQKVTLMLLDHNNREHVIDAFRPDVTSSSFQRPVSDMNIASGCPLFCPVSKMEAKNSYVRDDAIFIKAIVDLTGL

Assays:
[1] = target: Lymphotoxin-beta receptor (LTβR) (mouse (endogenous in primary LEC)) (UniProt P50284); assay: co-IP; LEC pretreated with 50 μM NIKi (4H-isoquinoline-1,3-dione), then stimulated with anti-LTβR mAb (2 μg/mL) for 10 min; LTβR complex precipitated with anti-LTβR and blotted for TRAF2 and TRAF3
[2] = target: Lymphotoxin-beta receptor (LTβR) (mouse (endogenous in primary LEC)) (UniProt P50284); assay: co-IP; 500 μg LEC extract with 1 μg anti-mLTβR (5G11b) overnight, protein G agarose 4 h; lysis buffer 20 mM Hepes pH 7.4, 150 mM NaCl, 0.5% Triton X-100; cells unstimulated or stimulated with anti-LTβR mAb (2 μg/mL) for 10 min; blots with anti-TRAF2, anti-TRAF3, anti-LTβR
[3] = target: T1, TNFR-associated factor 3 (TRAF3) (mouse (endogenous in primary LEC)); assay: co-IP; LEC pretreated with the cell-permeable peptide (20 μM), then stimulated with anti-LTβR mAb (2 μg/mL) for 10 min; LTβR complex precipitated with anti-LTβR and blotted for TRAF2 and TRAF3; loss of TRAF from the receptor complex is the read-out; only the binder purified
[4] = target: T2, TNFR-associated factor 2 (TRAF2) (mouse (endogenous in primary LEC)); assay: as above

Row | Binder | binding [1] | binding [2] | binding [3] | binding [4]
1 | B1 | no binding (condition: cells pretreated with 50 μM NIKi) | binds |  | 
2 | B2 | no binding (condition: cells pretreated with 50 μM NIKi) | binds |  | 
3 | RQIKIWFQNRRMKWKKTGNIYIYNGPVL [nciLT, LTβR-derived decoy peptide targeting non-classical NFκB signaling] |  |  | binds | 
4 | RQIKIWFQNRRMKWKKTPEEGAPGP [ciLT, LTβR-derived decoy peptide targeting classical NFκB signaling] |  |  |  | binds
